Out of some 320,000 compounds screened, about 22,000 (6.9%) were called active. This list was built around the results that the source calls inconclusive (neither active nor inactive); the mix of calls is not that of the screen. Calls follow the shape of the dose curve; as a rule, active = well fitted inhibition curve with a large enough effect; inconclusive = small, poorly fitted or top-dose-only effect, or another doubt; inactive = no such curve, though single readings can be large or run the other way. Where the call is inconclusive, the potency comes from a doubtful curve fit.
Experiment: Primary qHTS for delayed death inhibitors of the malarial parasite plastid, 96 hour incubation
Settings: P. falciparum luciferase reporter growth; series mostly up to 28.7 µM; activity change, negative = inhibition: at the top concentration
Outline: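 Two-generation exposure (96 h) targets delayed-death phenotype. Reporter parasites carrying integrated firefly luciferase, in red cells at 2% hematocrit and 0.05% parasitemia final, kept at 37 C, 5% CO2; luminescence loss indicates inhibition.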
% is scaled to controls: 0 for no effect and ±100 for the full control effect; potency is read from the fitted curve at half-maximal effect.

Row | Compound | activity change, negative = inhibition | Potency
1 | Cc1ccc(S(=O)(=O)N[C@@H](C)C(=O)N2CCC(C(=O)N[C@@H](Cc3ccccc3)C(=O)O)CC2)cc1 | inactive: 13.2% | 
2 | CCC1=C2CC[C@H]3C(=O)N(c4ccccc4)C(=O)[C@H]3[C@H]2[C@@]2(C)C(=NCc3ccccc3)OC(=O)N2C1=O |  | inconclusive: 10.4 µM [inhibitor, single point]
3 | Cc1ccc2oc(=O)cc(CN3CCCCC3)c2c1 | inactive: -3.63% | 
4 | CCn1c(-c2ccc(N)cc2)nc2ccccc21 | inactive: 39.7% | 
5 | Cc1ccc(C2=NCCn3c2c2ccc(C(F)(F)F)cc2[n+]3[O-])cc1 |  | inconclusive: 18.5 µM [inhibitor, single point]
6 | O=C1CC(c2ccccc2)CC(O)=C1C=NCc1ccc(Cl)cc1 (centres undefined) |  | inconclusive: 0.0294 µM [inhibitor, full curve, poor fit]
7 | CCCN1CCN(S(=O)(=O)c2cn(C)nc2C)CC1 |  | inconclusive: 10.4 µM [inhibitor, partial curve, poor fit]
8 | CCCCOCCOCCOCCCC | inactive: 49% | 
9 | O=C(Cc1ccccc1)NNc1ccc2ccccc2c1 |  | inconclusive: 8.28 µM [inhibitor, single point]
10 | CC(C)(O)C#Cc1ccc(C(=O)N2CCN(c3ccccc3)CC2)cc1 |  | inconclusive: 18.5 µM [inhibitor, partial curve, poor fit]
11 | COc1ccc(C(=O)NNC(=O)c2ccc(S(=O)(=O)N3CC(C)OC(C)C3)cc2)cc1 (centres undefined) |  | active: 1.47 µM
12 | Cc1cc(C(=O)NCCCN2CC(C)CC(C)C2)n(-c2ccccc2)n1 (centres undefined) |  | inconclusive: 16.5 µM [inhibitor, single point]
13 | CN(CC(=O)Nc1cccc(F)c1)C(=O)CCSc1ccc(F)cc1 |  | inconclusive: 18.5 µM [inhibitor, single point]
14 | O=C(C1CC1)N1N=C(C2CCCCC2)CC1(O)C(F)(F)F (centres undefined) | inactive: 16.4% | 
15 | COC(=O)c1ccc2c(c1)SC1=C(CCCC1=O)N2 |  | inconclusive: 3.29 µM [inhibitor, full curve, poor fit]
16 | CCOc1ccc(C2C(C#N)=C(N)Oc3c2c(=O)oc2ccccc32)cc1 (centres undefined) |  | inconclusive: 0.415 µM [inhibitor, full curve]
17 | CCC(=O)N/N=C/c1ccc(OS(=O)(=O)c2ccccc2)cc1 |  | inconclusive: 11.7 µM [inhibitor, single point]
18 | COc1ccc(/C=C(\NC(=O)c2ccc(OC)c(OC)c2)C(=O)N2CCN(C)CC2)cc1 | inactive: 187% | 
19 | CCCCNC(=O)C(CC)(ONc1ccccc1C(F)(F)F)c1ccccc1 (centres undefined) |  | inconclusive: 1.85 µM [inhibitor, partial curve, poor fit]
20 | CCOC(=O)CN1C(=O)CC(c2ccc([N+](=O)[O-])cc2)C1=O (centres undefined) |  | active: 7.38 µM
21 | CN(C)/C=N/S(=O)(=O)c1ccc(Cl)c(Cl)c1 | inactive: -1.47% | 
22 | Nc1nnnn1/N=C/C=C/c1ccccc1 | inactive: 0.887% | 

Row | Compound | activity change, negative = inhibition | Potency
23 | C=CCn1c(=N)c(C(=O)NCCCOC)cc2c(=O)n3cc(C)ccc3nc21 |  | active: 7.38 µM
24 | COC(=O)C1=C(C)N(C)C(=O)NC1c1c(O)ccc2ccccc12 (centres undefined) | inactive: -27.9% | 
25 | C=CCN1C(=O)C(Cc2ccc(OCC)cc2)SC1=Nc1ccc(C(=O)O)cc1 (centres undefined) |  | inconclusive: 13.1 µM [inhibitor, single point]
26 | O=C(N/N=C/c1ccncc1)c1ccc2c(c1)OCO2 |  | inconclusive: 10.4 µM [inhibitor, single point]
27 | COc1cc2c(cc1OC)CN(C(=O)c1cc(S(=O)(=O)N3CCCCC3)ccc1Cl)CC2 |  | inconclusive: 10.4 µM [inhibitor, partial curve]
28 | O=C(CSc1nnc(NC2CCCCC2)s1)Nc1ccc(N2CCOCC2)cc1 | inactive: 1.15% | 
29 | CN(C)[C@@H]1C(=O)C(C(N)=O)=C(O)[C@]2(O)C(=O)C3=C(O)c4c(O)ccc(Cl)c4[C@H](O)[C@H]3C[C@@H]12 |  | active: 3.38 µM
30 | COC(=O)C1=C(c2ccc(F)cc2OCc2ccccc2)C[C@@H]2CC[C@H]1N2C(=O)NC1CCN(Cc2ccccc2)CC1 |  | inconclusive: 9.28 µM [inhibitor, partial curve, poor fit]
31 | Clc1ccc(Nc2ccc(-n3ccnc3)nn2)cc1Cl |  | active: 1.85 µM
32 | CC(=O)Nc1ccc(C(=O)NNC(=O)c2cccs2)cc1 |  | inconclusive: 18.5 µM [inhibitor, single point]
33 | COC(=O)C(NC(C)=O)(Nc1ccc(C)cn1)C(F)(F)F (centres undefined) | inactive: -10.4% | 
34 | Cc1cccc(N=C2NC(=O)/C(=C/c3cccnc3)S2)c1 |  | inconclusive: 13.1 µM [inhibitor, single point]
35 | CN(CC(CC(=O)Nc1nncs1)c1ccccc1)S(=O)(=O)c1ccc(Br)cc1 (centres undefined) |  | inconclusive: 11.7 µM [inhibitor, single point]
36 | CCOC(=O)CSc1nnc2c3ccccc3n(CC)c2n1 |  | inconclusive: 9.28 µM [inhibitor, single point]
37 | O=C(Nc1ccc(F)cc1F)c1ccc(S(=O)(=O)N2CCCCC2)cc1 |  | inconclusive: 18.5 µM [inhibitor, single point]
38 | O=C(NC(=S)Nc1cc(C(F)(F)F)ccc1N1CCOCC1)c1ccc(-c2cccc(Cl)c2)o1 |  | inconclusive: 11.7 µM [inhibitor, single point]
39 | COc1cc2c(cc1NC(=O)CSc1ccccn1)oc1ccccc12 |  | inconclusive: 2.08 µM [inhibitor, partial curve, poor fit]
40 | COC(=O)c1ccc(CN2C(=O)C(C)N(C(=O)c3c(F)cccc3F)c3ccccc32)cc1 (centres undefined) |  | inconclusive: 10.4 µM [inhibitor, single point]
41 | CC(C)[C@H]1CN(C)CCN1Cc1cn(C)nc1-c1cccc(Cl)c1 |  | inconclusive: 14.7 µM [inhibitor, partial curve]
42 | Cc1cc(C)nc(-n2ncc3c2CC(c2cccc(Cl)c2)CC3=O)n1 (centres undefined) |  | active: 4.15 µM
43 | CCCN(CCC)CC(O)COc1ccc2c(c1)OCO2 (centres undefined) |  | inconclusive: 18.5 µM [inhibitor, partial curve, poor fit]
44 | CC(=O)C1=C(NC(=O)c2ccc(F)cc2)CC2C1C2(C)C (centres undefined) |  | inconclusive: 10.4 µM [inhibitor, partial curve]

Nos. 21 to 22 of the list above:
Row | Compound | activity change, negative = inhibition | Potency
21 | CN(C)/C=N/S(=O)(=O)c1ccc(Cl)c(Cl)c1 | inactive: -1.47% | 
22 | Nc1nnnn1/N=C/C=C/c1ccccc1 | inactive: 0.887% | 

Source: PubChem BioAssay AID504834 (National Center for Advancing Translational Sciences (NCATS), 2011)
